Results on 1 substance are retold here after paper PMC10857571.

Chains of the proteins cited; added tags and fusions are not shown. Residues count along the entry.
UniProt Q04206: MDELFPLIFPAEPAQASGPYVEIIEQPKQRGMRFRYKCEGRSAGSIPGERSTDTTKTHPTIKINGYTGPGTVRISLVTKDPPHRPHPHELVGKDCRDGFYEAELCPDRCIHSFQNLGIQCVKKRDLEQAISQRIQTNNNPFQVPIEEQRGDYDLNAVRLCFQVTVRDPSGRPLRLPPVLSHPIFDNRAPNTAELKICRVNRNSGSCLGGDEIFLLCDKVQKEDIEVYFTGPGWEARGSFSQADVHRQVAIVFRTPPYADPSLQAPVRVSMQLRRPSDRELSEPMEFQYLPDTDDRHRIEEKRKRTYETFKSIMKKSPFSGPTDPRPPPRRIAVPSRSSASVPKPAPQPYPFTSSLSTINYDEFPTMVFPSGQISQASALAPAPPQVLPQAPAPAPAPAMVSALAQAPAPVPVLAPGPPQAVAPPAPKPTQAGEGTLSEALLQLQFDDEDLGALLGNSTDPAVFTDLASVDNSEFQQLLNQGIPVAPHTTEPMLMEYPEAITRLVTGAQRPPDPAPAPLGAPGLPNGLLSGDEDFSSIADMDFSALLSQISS
UniProt P25963: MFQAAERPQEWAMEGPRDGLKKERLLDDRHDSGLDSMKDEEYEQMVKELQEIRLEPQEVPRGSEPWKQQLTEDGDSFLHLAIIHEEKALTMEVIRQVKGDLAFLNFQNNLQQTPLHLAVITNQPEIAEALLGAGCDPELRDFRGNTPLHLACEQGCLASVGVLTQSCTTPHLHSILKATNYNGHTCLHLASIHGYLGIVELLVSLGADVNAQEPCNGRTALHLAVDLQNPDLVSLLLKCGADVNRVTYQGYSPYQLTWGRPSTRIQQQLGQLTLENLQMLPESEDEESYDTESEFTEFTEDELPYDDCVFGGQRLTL
UniProt P19838, residues 1-433: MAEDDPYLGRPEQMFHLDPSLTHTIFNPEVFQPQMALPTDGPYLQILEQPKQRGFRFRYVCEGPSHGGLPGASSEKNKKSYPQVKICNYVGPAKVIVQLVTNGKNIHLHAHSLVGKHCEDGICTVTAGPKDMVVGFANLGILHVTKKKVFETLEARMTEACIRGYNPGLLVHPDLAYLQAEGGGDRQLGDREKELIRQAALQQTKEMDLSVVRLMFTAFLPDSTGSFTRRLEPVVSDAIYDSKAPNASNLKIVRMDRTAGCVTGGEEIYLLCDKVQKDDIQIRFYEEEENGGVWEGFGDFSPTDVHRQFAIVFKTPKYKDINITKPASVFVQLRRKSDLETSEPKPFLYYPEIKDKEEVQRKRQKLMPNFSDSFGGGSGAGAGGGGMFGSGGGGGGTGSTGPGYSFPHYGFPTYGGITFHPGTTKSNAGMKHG

No constants are given. Whether binding was seen depends on the method and setting. Binding seen in cells or lysates may run through a third protein. Some entries that bind do so weakly or less than the wild type.

For test [1], the target named is RelA (p65) (human (endogenous in THP-1)) (UniProt Q04206). The test is described as follows: co-IP; endogenous proteins in THP-1 cell lysates (100 μg protein), 2 μg antibody, TENDS buffer (20 mM Tris HCl pH 8.0, 1 mM EDTA, 2 mM DTT, 0.25 M sucrose), 4°C, protein A/G-agarose, immunoblot; cells exposed to vehicle, olaparib, oxLDL (100 μg/mL, 24 hr) or oxLDL with olaparib; normal rabbit IgG as control. Background: A western blot detects proteins with antibodies after separation by electrophoresis.

Test [2] addresses IκBα (human (endogenous in THP-1)) (UniProt P25963). The test is described as above.

Consider NF-κB1 p50 (from UniProt P19838 1-433), for which the binding result in test [1] and in test [2] was “binds” each time.
